Measurements reported in PubChem BioAssay AID504744 (Drosophila RNAi Screening Center, 2011)

Test: 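Find genes whose loss alters insulin-driven dAkt phosphorylation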 (primary screen)
Cells: Drosophila Kc167 cells
Reagent: long dsRNA against Drosophila genes, 250 ng dsRNA per well of a 384-well plate
Duration: 3 days of knock-down, then overnight serum-free starvation before stimulation
Conditions: bovine insulin at 387 nM for 10 minutes after 12 h without serum
Measurement: 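In-cell antibody fluorescence for phospho-dAkt in each well over DNA-dye signal, with log2 residuals expressed as z-scores adjusted for cell count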
Active means: 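Hit in the insulin screen when the two-replicate mean z-score is more extreme than plus or minus 2.5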
The deposit covers about 23,000 reagents; shown is an unselected part of those that have a named target and a result. Over the whole deposit, 98 (0.43%) are marked active. 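Only hit calls are given; the phospho-dAkt signals, z-scores and hit direction were not deposited.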 A plus sign joins genes that one reagent is predicted to hit.

With pippin [DRSC04489], how do the results read?
call: inactive

Which result is listed for Ank [DRSC17127]?
call: inactive

For CG1360 [DRSC06406], what was measured?
call: inactive

With CG12895 [DRSC06210], what does the deposit list?
call: inactive

With Klp31E [DRSC03354], what was measured?
call: inactive

For CG11791 [DRSC14391], what was measured?
call: inactive

For CG2310 [DRSC15438], how do the results read?
call: inactive

With CG2182 [DRSC12308], how do the results read?
call: inactive

With CG5111 [DRSC15717], what was measured?
call: inactive

Which result is listed for CG13847 [DRSC14697]?
call: inactive

What did the screen give for Gem4b + Gem4c + Glos [DRSC18244]?
call: inactive

How did the screen score mor [DRSC15378]?
call: inactive

Which result is listed for Egm [DRSC07319]?
call: inactive

What did the screen give for Egm [DRSC22860]?
call: inactive

With CG31870 [DRSC21681], what was measured?
call: inactive

What is on record for acs [DRSC08185]?
call: inactive

With CG6310 [DRSC10619], what does the deposit list?
call: inactive

What did the screen give for CG11672 [DRSC14344]?
call: inactive

How did the screen score Muc11A [DRSC19498]?
call: inactive

How did the screen score CG10431 [DRSC02055]?
call: inactive

For CG14683 [DRSC17035], what was measured?
call: inactive

What is on record for CG7044 [DRSC16180]?
call: inactive

What is on record for Mi-2 + Su(Tpl) [DRSC09640]?
call: inactive
